# Results taken from patent publication EP3884963A1, “NAPROXEN/DEXAMETHASONE-BASED NANOPARTICLES” (Consejo Superior de Investigaciones Científicas (CSIC), priority 2020, dated 2021).
# At least one structure is not confirmed: it was looked up by name or label, or the drawing left a doubt.
# Legend:
# [1] = tested on: NO release by RAW264.7 macrophages; assay: Nitric oxide (NO) assay with Griess reagent, LPS-activated macrophages; format: cell-based, murine; conditions: 24 h of incubation, LPS 5 µg/mL
# IL12b = assay: RT-qPCR of gene transcript levels in RAW264.7 cells; format: cell-based, mouse; conditions: unstimulated RAW264.7 (no LPS), 1 day and 7 days; free Dx 2.55 µM; 8Dx-NAP NPs 2.55 µM Dx and 0.045 mg/mL NPs; relative to untreated sample
# VEGF = assay: as above; format: cell-based, mouse; conditions: no LPS, after 7 days; dexamethasone 2.55 µM
# IL10 = assay: as above; format: cell-based, mouse; conditions: no LPS, both time points studied; dexamethasone 2.55 µM
# [2] = tested on: M1 (IL12b, IL23a, and TNF-α); assay: RT-qPCR of gene transcript levels in RAW264.7 cells, M1 markers stated together; format: cell-based, mouse; conditions: LPS 500 ng/mL, after 24 hours of treatment; free dexamethasone 2.55 µM; NPs 0.045 mg/mL
# M2 (TGF-β, and IL 10) = assay: RT-qPCR of gene transcript levels in RAW264.7 cells, M2 markers stated together; format: cell-based, mouse; conditions: no LPS; dexamethasone 2.55 µM
compound,measurement,setting,value
"C[C@@H]1C[C@H]2[C@@H]3CCC4=CC(=O)C=C[C@]4(C)[C@@]3(F)[C@@H](O)C[C@]2(C)[C@@]1(O)C(=O)CO [free Dx, Dexamethasone]",LPS-induced NO release with respect to LPS treated cells (LPS+),[1],reduced NO release in a statistically significant manner at all tested concentrations
same,IL12b expression,IL12b,inhibited IL12b expression at both time points tested
same,anti-angiogenic capacity (reduction of VEGF expression),VEGF,clearly observed after 7 days
same,IL10 transrepression,IL10,clearly observed
same,transcript levels of pro-inflammatory cytokines (M1 polarization) compared to the inflamed control (+LPS),[2],significantly reverse M1 polarization
same,over-expression of M2 markers,"M2 (TGF-β, and IL 10)",no over-expression of M2 markers
